Laboratory results published in US6306832.

By UniProt entry, the sequences of proteins in these tests, tags left out.
UniProt P03372, whole entry: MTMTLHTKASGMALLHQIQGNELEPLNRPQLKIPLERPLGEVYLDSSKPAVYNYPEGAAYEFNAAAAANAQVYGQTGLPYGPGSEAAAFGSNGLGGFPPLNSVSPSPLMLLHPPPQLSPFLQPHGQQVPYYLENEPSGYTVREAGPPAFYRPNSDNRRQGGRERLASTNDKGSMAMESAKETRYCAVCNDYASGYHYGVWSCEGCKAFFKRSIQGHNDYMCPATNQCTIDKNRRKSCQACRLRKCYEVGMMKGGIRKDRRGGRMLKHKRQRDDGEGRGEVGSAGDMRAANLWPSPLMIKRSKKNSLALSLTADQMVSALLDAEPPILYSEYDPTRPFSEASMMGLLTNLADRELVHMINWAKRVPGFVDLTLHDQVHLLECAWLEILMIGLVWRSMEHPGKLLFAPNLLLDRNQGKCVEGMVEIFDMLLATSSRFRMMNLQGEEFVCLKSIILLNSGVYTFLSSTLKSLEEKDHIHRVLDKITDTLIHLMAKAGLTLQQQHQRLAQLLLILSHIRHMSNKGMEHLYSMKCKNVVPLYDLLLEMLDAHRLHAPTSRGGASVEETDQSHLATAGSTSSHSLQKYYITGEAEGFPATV
UniProt P03372, whole entry Y537F: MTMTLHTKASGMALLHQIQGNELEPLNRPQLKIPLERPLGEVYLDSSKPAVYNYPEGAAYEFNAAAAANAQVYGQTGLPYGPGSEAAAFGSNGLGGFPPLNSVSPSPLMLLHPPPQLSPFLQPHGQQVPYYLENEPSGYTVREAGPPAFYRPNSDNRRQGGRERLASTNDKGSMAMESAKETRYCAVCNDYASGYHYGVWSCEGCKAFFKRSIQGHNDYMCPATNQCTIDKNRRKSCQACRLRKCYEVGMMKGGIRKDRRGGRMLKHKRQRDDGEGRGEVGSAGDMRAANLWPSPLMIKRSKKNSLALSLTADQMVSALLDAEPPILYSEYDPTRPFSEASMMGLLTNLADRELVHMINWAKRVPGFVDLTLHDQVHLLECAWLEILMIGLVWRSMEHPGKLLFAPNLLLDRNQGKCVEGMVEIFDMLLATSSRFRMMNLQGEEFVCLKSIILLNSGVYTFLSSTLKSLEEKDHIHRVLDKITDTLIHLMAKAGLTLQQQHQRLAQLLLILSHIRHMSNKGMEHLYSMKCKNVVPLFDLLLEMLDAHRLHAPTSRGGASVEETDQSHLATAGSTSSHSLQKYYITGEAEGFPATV

Columns and labels:
[1] = biological target: estrogen receptor alpha (ER-wt) (Homo sapiens) (UniProt P03372); assay: EMSA; conditions: COS-7 lysate, 100 nM estradiol, 4 C; blocked by 5 uM mY8 peptide; protein in a lysate after overexpression; protein details: expressed from pcDNA3 in COS-7 cells; label: 32P 5'-end (polynucleotide kinase)
[2] = biological target: estrogen receptor alpha Y537F (ER-Y537F) (Homo sapiens) (UniProt P03372); assay: EMSA; conditions: COS-7 lysate, 100 nM estradiol, 4 C; marked reduction of binding vs wild type; protein in a lysate after overexpression; protein details: expressed from pcDNA3 in COS-7 cells; label: 32P 5'-end (polynucleotide kinase)

“GATCCTAGAGGTCACAGTGACCTACGA (double strand) [vitellogenin A2 ERE 27-bp probe]”: binds [1]; binds more weakly [2].

Results from cells or extracts need not show a direct contact. For some assays here: The comparison behind a weaker result is the experiment's own reference, which may not be listed here.
